The assay concerns the target T1, HA-tagged scleraxis (pECE-HA-Scx) (UniProt Q64124).
T1 sequence: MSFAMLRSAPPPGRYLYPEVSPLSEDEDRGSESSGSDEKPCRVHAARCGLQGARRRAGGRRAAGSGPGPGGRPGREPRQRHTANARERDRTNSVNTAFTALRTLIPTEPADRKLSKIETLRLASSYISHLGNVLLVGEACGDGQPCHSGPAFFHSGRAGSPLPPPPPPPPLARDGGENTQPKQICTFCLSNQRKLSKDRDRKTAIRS
The assay can be described thus: co-IP; NIH-3T3 cells transfected 48 h with HA-Scx (or HA-ScxΔHLH) and Myc-Smad3; lysis in 50 mmol/L Tris pH 7.5, 150 mmol/L NaCl, 0.5 % Triton X-100; 500 μg protein immunoprecipitated with anti-HA antibody or rabbit IgG; western blot with anti-c-myc.

By UniProt entry, the sequences of proteins in these tests, tags left out.
UniProt P84022: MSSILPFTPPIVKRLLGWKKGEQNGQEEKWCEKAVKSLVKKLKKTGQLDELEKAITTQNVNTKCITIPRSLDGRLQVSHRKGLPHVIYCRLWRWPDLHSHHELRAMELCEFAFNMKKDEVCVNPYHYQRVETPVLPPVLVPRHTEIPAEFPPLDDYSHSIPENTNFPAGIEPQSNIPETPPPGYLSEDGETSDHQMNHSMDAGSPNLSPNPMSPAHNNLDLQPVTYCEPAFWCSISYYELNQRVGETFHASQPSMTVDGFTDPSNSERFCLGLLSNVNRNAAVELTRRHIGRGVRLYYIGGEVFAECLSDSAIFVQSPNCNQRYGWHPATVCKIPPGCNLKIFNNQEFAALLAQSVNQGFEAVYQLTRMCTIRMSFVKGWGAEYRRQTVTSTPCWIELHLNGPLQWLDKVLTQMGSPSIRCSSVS

Results are given in words; binding and its absence hold for the method and conditions named. In cells and extracts the contact can be indirect. Some entries that bind do so weakly or less than the wild type. Tags and fused reporters may be left off the sequences shown.

“myc-tagged Smad3 (pCMV tag3C-Myc-Smad3) (from UniProt P84022 1-425)”: the binding entry is given as “binds”.

The values above are taken from paper PMC4794909, “The transcription factor scleraxis is a critical regulator of cardiac fibroblast phenotype”.
